Among the data in PMC12041782 are binding values, retold here.

Chains of the proteins cited; added tags and fusions are not shown. Residues count along the entry.
UniProt Q9BZS1, residues 1-417: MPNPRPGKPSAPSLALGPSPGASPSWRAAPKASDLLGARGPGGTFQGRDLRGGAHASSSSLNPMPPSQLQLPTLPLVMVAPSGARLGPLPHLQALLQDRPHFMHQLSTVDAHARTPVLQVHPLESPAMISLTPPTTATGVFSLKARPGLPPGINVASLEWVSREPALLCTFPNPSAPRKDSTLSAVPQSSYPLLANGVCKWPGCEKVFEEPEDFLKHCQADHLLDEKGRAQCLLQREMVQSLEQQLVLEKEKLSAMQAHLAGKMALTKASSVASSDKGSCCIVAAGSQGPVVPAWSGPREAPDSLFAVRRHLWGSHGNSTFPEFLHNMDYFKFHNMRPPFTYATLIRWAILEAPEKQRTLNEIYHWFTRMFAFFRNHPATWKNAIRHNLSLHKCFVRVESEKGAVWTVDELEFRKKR

Assay [1] deals with sequestosome-1 (SQSTM1/p62) (UniProt Q13501). Nature of the assay: co-IP; Co-IP of FOXP3, FXR1 with p62; cells, antibodies and bait not stated.
The target in assay [2] is forkhead box P3 (FOXP3), endogenous in HEK293T cells (human (endogenous in HEK293T)) (UniProt Q9BZS1). Nature of the assay: co-IP; endogenous proteins in 293T cells; precipitated with anti-FOXP3 or anti-FXR1 antibodies, IgG as the control.
The next assay addresses HA-FOXP3 wild type (UniProt Q9BZS1). Nature of the assay: co-IP; exogenous HA-FOXP3 and Flag-FXR1 wild-type plasmids transfected into 293T cells; empty vectors as control.

No constants are given. Whether binding was seen depends on the method and setting. Binding seen in cells or lysates may run through a third protein. Some binding calls cover weakened binding; strength is not graded here.

“FMR1 autosomal homolog 1 (FXR1), endogenous in HEK293T cells (from UniProt P51114 1-621)”: the binding result in assay [1] and in assay [2] was “binds” in each case.
In the case of “Flag-FXR1 wild type (from UniProt P51114 1-621)”, the binding entry with HA-FOXP3 wild type was “binds”.
